According to publication PMC2483412:
No constants are given. Whether binding was seen depends on the method and setting. Binding seen in cells or lysates may run through a third protein. Some results given as binding are weak or reduced against the parent protein; the word gives no strength.

Chains of the proteins cited; added tags and fusions are not shown.
UniProt Q96GD4: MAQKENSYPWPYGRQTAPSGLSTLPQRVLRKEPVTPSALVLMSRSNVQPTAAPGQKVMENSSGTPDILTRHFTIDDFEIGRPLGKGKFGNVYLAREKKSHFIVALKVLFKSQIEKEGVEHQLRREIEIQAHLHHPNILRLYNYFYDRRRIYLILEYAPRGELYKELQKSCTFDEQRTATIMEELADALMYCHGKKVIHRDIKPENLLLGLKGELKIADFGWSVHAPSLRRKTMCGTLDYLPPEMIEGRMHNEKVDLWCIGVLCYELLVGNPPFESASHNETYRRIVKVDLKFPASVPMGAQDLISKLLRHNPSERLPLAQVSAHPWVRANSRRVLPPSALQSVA

Target: T1, endogenous RasGAP of human tumor cell lines (human (endogenous in HeLa, HCT116, Panc 10.05)) (UniProt P20936)
T1 sequence: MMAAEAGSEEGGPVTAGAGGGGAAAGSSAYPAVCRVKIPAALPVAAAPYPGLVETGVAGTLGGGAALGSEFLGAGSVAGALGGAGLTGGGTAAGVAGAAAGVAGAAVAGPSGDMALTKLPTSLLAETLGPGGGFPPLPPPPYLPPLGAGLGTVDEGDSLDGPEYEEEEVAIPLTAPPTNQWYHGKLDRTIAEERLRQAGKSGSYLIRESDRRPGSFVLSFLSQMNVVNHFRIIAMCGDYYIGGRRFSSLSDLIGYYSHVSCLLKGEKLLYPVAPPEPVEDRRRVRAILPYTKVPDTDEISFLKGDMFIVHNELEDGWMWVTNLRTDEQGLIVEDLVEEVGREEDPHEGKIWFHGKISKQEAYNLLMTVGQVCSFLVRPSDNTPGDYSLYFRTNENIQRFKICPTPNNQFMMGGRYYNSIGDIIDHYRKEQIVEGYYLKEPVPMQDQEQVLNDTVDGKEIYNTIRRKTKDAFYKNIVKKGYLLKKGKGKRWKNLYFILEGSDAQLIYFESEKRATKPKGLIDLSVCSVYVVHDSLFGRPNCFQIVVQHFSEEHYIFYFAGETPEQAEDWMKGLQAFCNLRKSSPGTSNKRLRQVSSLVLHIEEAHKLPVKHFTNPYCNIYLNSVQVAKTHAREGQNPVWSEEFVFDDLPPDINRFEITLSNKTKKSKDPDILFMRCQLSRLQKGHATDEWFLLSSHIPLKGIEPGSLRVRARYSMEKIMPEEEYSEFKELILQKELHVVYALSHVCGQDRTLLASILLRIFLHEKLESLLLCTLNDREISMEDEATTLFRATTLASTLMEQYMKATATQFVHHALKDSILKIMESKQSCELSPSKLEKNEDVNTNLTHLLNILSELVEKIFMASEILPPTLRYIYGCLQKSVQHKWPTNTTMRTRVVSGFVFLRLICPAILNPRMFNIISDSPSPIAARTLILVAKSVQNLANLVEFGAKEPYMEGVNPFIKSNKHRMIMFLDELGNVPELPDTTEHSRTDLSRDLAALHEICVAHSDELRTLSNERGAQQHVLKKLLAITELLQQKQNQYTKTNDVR
Test: pull-down; RasGAP captured on a p62DOK-derived, RasGAP SH2-interacting peptide coupled to CNBr-sepharose from 300 µg lysate of HeLa, HCT116 or Panc 10.05 cells expressing control aptamer C6 or RG27, 2 h at 4°C; blots for RasGAP and Aurora B

Aurora B kinase (from UniProt Q96GD4 1-344) (enzyme)
binding: binds
